Results published in the supplement of paper PMC10735217.
The other results are listed elsewhere or left out. Single values are uncertain here, since repeats match poorly.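 In a drug-repurposing library screen, luminescence reads luciferase driven by eight TEAD-binding elements, stably integrated into human kidney-derived cells. Compounds scoring over five robust Z scores above the plate mean are called hits.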

Tested on: HEK293A TEAD-LUC reporter
Assay: TEAD-luciferase reporter activity (YAP activation), robust Z score vs plate; higher = stronger YAP/TEAD activation
Details: 24 h

Structure (SMILES) | TEAD-luciferase reporter activity (compound concentration: 200 nM) | TEAD-luciferase reporter activity (compound concentration: 2 uM) | TEAD-luciferase reporter activity (compound concentration: 10 uM)
Cn1c(Nc2ccc(C(F)(F)F)cc2)nc2cc(Oc3ccnc(-c4ncc(C(F)(F)F)[nH]4)c3)ccc21 | inactive: -1.7 | inactive: -1.55 | inactive: 2.34
O=c1c2ccccc2nnn1N1CCOCC1 | inactive: -1.23 | inactive: -1.58 | inactive: -1.02
CN1CCN(CCCN2c3ccccc3Sc3ccc(Cl)cc32)CC1 [prochlorperazine, Alexza] | – | inactive: -0.583 | –
CN1CCN(CCCN2c3ccccc3Sc3ccc(Cl)cc32)CC1 | inactive: 4.56 | – | inactive: -0.93
COc1cc2c(cc1OC)CN(CCc1ccc(NC(=O)c3cc(OC)c(OC)cc3NC(=O)c3cnc4ccccc4c3)cc1)CC2 [tariquidar] | inactive: -0.859 | inactive: -0.89 | inactive: 0.281
COc1c(/C=C/c2ccc(NS(C)(=O)=O)cc2)cc(-n2ccc(=O)[nH]c2=O)cc1C(C)(C)C | inactive: 0.788 | inactive: -0.47 | inactive: -0.907
CCOCCn1nc(CC)c2nc(N3CCC(C(=O)O)CC3)nc(Nc3cc(C)ccn3)c21 | inactive: -0.735 | inactive: -0.618 | inactive: -1.15
CC(=C\c1ccccc1)/C=C1/SC(=S)N(CC(=O)O)C1=O [diepalrestat choline] | inactive: -1.19 | inactive: -2.3 | inactive: -0.992
N#Cc1c(N)nc(N)nc1N[C@H](c1nc2c(F)ccc(Cl)c2c(=O)n1-c1cccnc1)C1CC1 | inactive: -1.59 | inactive: -0.764 | inactive: -1.23
Nc1nc(O)c2c(CCc3ccc(C(=O)NC(CCC(=O)O)C(=O)O)cc3)c[nH]c2n1 (stereo unspecified) [pemetrexed disodium] | inactive: -1.09 | inactive: 1.09 | inactive: -0.255
Cc1c(F)c(N2CCNC(C)C2)cc2c1c(=O)c(C(=O)O)cn2C1CC1 (stereo unspecified) [grepafloxacin] | inactive: -1.34 | inactive: 0.519 | inactive: 0.127
CC12C=CC(=O)C=C1CCC1C2C(O)CC2(C)C1CC[C@]2(O)C(=O)COC(=O)CCC(=O)O (stereo partly specified) [Prednisolone Sodium Succinate] | inactive: 2.8 | inactive: -0.841 | inactive: 0.499
CC(=O)Nc1ccc(C(=O)N2CCN(c3ccc(C=O)cc3)C(=O)C2)cc1 | inactive: -0.452 | – | active: 5.97
Nc1nc2c(cnn2CCN2CCN(c3ccc(F)cc3F)CC2)c2nc(-c3ccco3)nn12 | inactive: -0.0506 | inactive: -0.781 | inactive: -1.36
Cc1cc(S(=O)(=O)O)c2c(C)ccc(C(C)C)cc1-2 [azulene sodium sulfonate] | inactive: 0.385 | inactive: 0.878 | inactive: 2.2

Just TEAD-luciferase reporter activity (compound concentration: 2 uM) and TEAD-luciferase reporter activity (compound concentration: 10 uM), for some of the entries so far:
Structure (SMILES) | TEAD-luciferase reporter activity (compound concentration: 2 uM) | TEAD-luciferase reporter activity (compound concentration: 10 uM)
CN1CCN(CCCN2c3ccccc3Sc3ccc(Cl)cc32)CC1 | – | inactive: -0.93
COc1c(/C=C/c2ccc(NS(C)(=O)=O)cc2)cc(-n2ccc(=O)[nH]c2=O)cc1C(C)(C)C | inactive: -0.47 | inactive: -0.907
